Experimental data: PubChem BioAssay AID1259308 (NCATS, 2017)
Shown is one part, drawn at random, of about 59,000 deposited reagents. Over the whole deposit, about 1,510 (2.6%) got an active call. 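Calls use total luciferase alone and ignore viability, so some active siRNAs may act by altering cell number.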 The numbers tell different reagents against one gene apart. Not all columns of the deposit are shown. No sequences are given here.

Purpose: 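Candidate targets for better recombinant protein yield in mammalian cells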 (primary screen)
System: human HEK293 embryonic kidney cells stably expressing firefly luciferase (HEK-CMV-Luc2-Hygro)
Reagent: single siRNA against human genes, 0.8 pmol siRNA per well
Duration: 72 h
Measurement: 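Reporter luminescence and viable-cell signal on separate replicate plates, given as percent of non-targeting control and median/MAD z-scores, plus per-cell luciferase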
Direction: total luciferase, z-score and total luciferase, % of control: higher = more reporter protein produced
Rule for the call: 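Active when the median/MAD z-score for overall luciferase is greater than 3; a gene was taken forward for validation with new siRNAs if at least two of its three siRNAs passed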
Meaning of the calls: active = raised luciferase; inactive = no rise

RBCK1 (RANBP2-type and C3HC4-type zinc finger containing 1) #1
- total luciferase, z-score: 1.88
- total luciferase, % of control: 119
- Outcome: inactive

RBCK1 (RANBP2-type and C3HC4-type zinc finger containing 1) #2
- total luciferase, z-score: -0.452
- total luciferase, % of control: 72.9
- Outcome: inactive

RBCK1 (RANBP2-type and C3HC4-type zinc finger containing 1) #3
- total luciferase, z-score: 2.12
- total luciferase, % of control: 124
- Outcome: inactive

UTP4 (UTP4 small subunit processome component) #1
- total luciferase, z-score: -2.08
- total luciferase, % of control: 40.6
- Outcome: inactive

UTP4 (UTP4 small subunit processome component) #2
- total luciferase, z-score: -1.3
- total luciferase, % of control: 56.1
- Outcome: inactive

UTP4 (UTP4 small subunit processome component) #3
- total luciferase, z-score: -1.63
- total luciferase, % of control: 49.5
- Outcome: inactive

OTUD7B (OTU deubiquitinase 7B) #1
- total luciferase, z-score: -1.85
- total luciferase, % of control: 45
- Outcome: inactive

OTUD7B (OTU deubiquitinase 7B) #2
- total luciferase, z-score: -0.396
- total luciferase, % of control: 74
- Outcome: inactive

OTUD7B (OTU deubiquitinase 7B) #3
- total luciferase, z-score: -2.15
- total luciferase, % of control: 39.1
- Outcome: inactive

PHC3 (polyhomeotic homolog 3) #1
- total luciferase, z-score: 0.0126
- total luciferase, % of control: 82.1
- Outcome: inactive

PHC3 (polyhomeotic homolog 3) #2
- total luciferase, z-score: -1.36
- total luciferase, % of control: 54.9
- Outcome: inactive

PHC3 (polyhomeotic homolog 3) #3
- total luciferase, z-score: -1.4
- total luciferase, % of control: 54
- Outcome: inactive

An excerpt from above, limited to “total luciferase, % of control”:
UTP4 (UTP4 small subunit processome component) #3: 49.5
OTUD7B (OTU deubiquitinase 7B) #1: 45
